PubChem BioAssay AID2417 (National Center for Advancing Translational Sciences (NCATS), 2010)
Hit rate of the full screen: of about 140,000 compounds, about 4,300 (3.1%) were called active. Inconclusive results, whose numbers are uncertain, are shown with a selection of clear calls.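 The calls were made as follows: active = readout at or below -70, meaning at least 70% loss of cells showing the perinucleolar compartment, a nuclear body marking cancer cells; inconclusive = readout between -30 and a set limit; inactive = the rest.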

Assay: High Content Assay for Compounds that inhibit the Assembly of the Perinucleolar Compartment;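 also: plate controls were DMSO wells for no effect and camptothecin positive control wells for full effect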
Conditions: PC3M PTB-GFP, PNC prevalence imaging, 16 h; at 10 µM; stronger effect = lower value
In short: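 Compounds are pinned in duplicate onto adhered PC3M cells stably expressing GFP-tagged PTB and incubated 16 h at 37 C. Cells are then fixed, nuclei stained with Hoechst, and PNC-positive cells counted.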

Row | Structure (SMILES) | activity change (PNC), negative = inhibition
1 | COc1cc(OC)c(OC)cc1CN1CCN(Cc2cccn2C)CC1 | inconclusive: -36.2%
2 | O=C(CSc1nccn1-c1ccc(F)cc1)Nc1ccc2c(c1)OCO2 | inconclusive: -30.1%
3 | COC(=O)CSc1nsc(SCC(=O)OC)n1 | inconclusive: -48%
4 | O=C1CCCN1CCC1CCN(C2CC(=O)N(Cc3ccc(N4CCCC4=O)cc3)C2=O)CC1 (centres undefined) | inconclusive: -36.3%
5 | Cc1ccc(/C(N)=N/OC(=O)Oc2ccccc2)cc1 | inconclusive: -32.2%
6 | Cc1ccc(C)c(N(C(=O)Cn2nnc(-c3cccs3)n2)C(C(=O)NC2CC2)c2ccc(C)o2)c1 (centres undefined) | inconclusive: -33.2%
7 | CCc1cccc(CC)c1NC(=O)c1cc(CN2C(=O)c3ccccc3C2=O)ccc1OC | inconclusive: -30.7%
8 | O=C(Cn1c(C(=O)NCc2ccco2)cc2sccc21)c1ccccc1 | inconclusive: -46.3%
9 | O=C(CS(=O)CC(=O)N(c1cccc(F)c1)C(C(=O)NC1CCCCC1)c1ccco1)Nc1ccc(F)cc1 (centres undefined) | inconclusive: -52.1%
10 | CS(=O)(=O)N(CC(=O)NCc1ccncc1)c1cc(Cl)cc(Cl)c1 | inconclusive: -39.8%
11 | C=CCn1c(SCC(=O)OC)nc2sc3c(c2c1=O)CCN(C)C3 | inconclusive: -77.3%
12 | C=CCN1C(=O)/C(=C/c2ccc(OCC(=O)O)cc2)S/C1=N/c1nccs1 | inconclusive: -35%
13 | CCOc1ccccc1NC(=O)CSc1c(C)n[nH]c1C | inconclusive: -58.9%
14 | Cc1ccc(S(=O)(=O)N2CCC(C(=O)N[C@@H](C)C(=O)NC3CCCCC3)CC2)cc1 | inconclusive: -39.2%
15 | CCn1c(C(O)c2ccc3c(c2)OCO3)nc2ccccc21 (centres undefined) | inconclusive: -32.9%
16 | COc1ccc(-n2c(=O)c3ccccc3c3ccccc3c2=O)cc1 | inconclusive: -36.6%
17 | CC(CCc1ccccc1)NC(=O)C1CCCN(C(=O)c2cc3sccc3n2C)C1 (centres undefined) | inconclusive: -34.5%
18 | O=C(NCCO)c1cc2c(s1)CCC2 | inconclusive: -45.6%
19 | Cc1ccc(S(=O)(=O)Nc2ccc(Cl)cc2C(=O)c2ccc(F)cc2)cc1 | inactive: 19.3%
20 | O=C(NN1C(=O)C2C3C=CC(C3)[C@H]2C1=O)c1cccnc1 (some centres undefined) | active: -97.5%
21 | O=C(Nc1ccc(Cl)cc1)N1CCSCC1 | inconclusive: -33.4%
22 | O=C(N/N=C/c1cccc([N+](=O)[O-])c1O)c1cccs1 | inactive: -19.9%

Row | Structure (SMILES) | activity change (PNC), negative = inhibition
23 | CCOC(=O)C1=C(C)NC(C)=C(C(=O)OCCNC(=O)c2cccnc2)C1c1cccc([N+](=O)[O-])c1 (centres undefined) | inconclusive: -32.3%
24 | O=c1c(-c2cc3ccccc3o2)[n+]([O-])c2ccccc2n1OCc1ccccn1 | inconclusive: -34.9%
25 | CCOC(=O)c1c(NC(=O)C(Sc2ccccc2)c2ccccc2)sc(C(=O)N(C)C)c1C (centres undefined) | inconclusive: -52.5%
26 | Cc1ccccc1-c1nnc(SCc2ccccc2)o1 | inconclusive: -40.9%
27 | O=c1cc(-c2ccccc2Cl)oc2c([N+](=O)[O-])c(O)cc(O)c12 | inconclusive: -77.1%
28 | COc1ccc(-c2nc3ccc(N4CCCC4)cc3c(=O)[nH]2)cc1OC | inconclusive: -44.5%
29 | CCOc1ccccc1-c1cc(-c2ccc(OC)cc2)nc2c1c(=O)n(C)c(=O)n2C | inconclusive: -52.6%
30 | O=C(NC1CCCC1)c1cnn2c(C(F)(F)F)cc(-c3ccc4c(c3)OCO4)nc12 | inconclusive: -79.7%
31 | Cc1noc(NS(=O)(=O)c2ccc(NC(=O)C34CC5CC(C3)CC(n3cnc(Br)n3)(C5)C4)cc2)c1C | inconclusive: -42.2%
32 | CCOC(=O)c1ccccc1NC(=O)c1cncc(Br)c1 | active: -93.5%
33 | COc1ccccc1OCC(=O)Nc1nonc1NC(=O)COc1ccccc1OC | inactive: -18%
34 | Cc1ccc(NC(=S)Nc2ccc3cn[nH]c3c2)cc1C | inconclusive: -41.1%
35 | O=C(COCCOCC(=O)N(c1ccccn1)C1CCCCC1)N(c1ccccn1)C1CCCCC1 | active: -100%
36 | COc1ccc(C2SCC(=O)N2c2c(C)n(C)n(-c3ccccc3)c2=O)cc1OC (centres undefined) | inactive: -13.8%
37 | C=CCN1C(=O)CC(C(=O)NC)SC1=Nc1ccc(C(=O)OCC)cc1 (centres undefined) | inconclusive: -74.6%
38 | CC(C)c1ccc(NC(=O)COc2nnc(-c3cccs3)c(-c3cccs3)n2)cc1 | inconclusive: -42.1%
39 | CCOC(=O)CSc1nc2c(c(=O)[nH]c(=O)n2C)n1CCc1ccccc1 | inconclusive: -35.3%
40 | COc1cc2ccccc2cc1C(=O)Nc1ccc(Cc2ccncc2)cc1 | inconclusive: -49.9%
41 | Cc1ccccc1Cn1nc(C)c(NC(=O)/C=C/c2cnn(C)c2)c1C | active: -114%
42 | Cc1cccc(NC(=S)NNC(=O)c2sccc2C)c1 | inconclusive: -35.4%
43 | CCN1c2ccccc2-c2nc3ccccc3n2C1c1cccs1 (centres undefined) | inactive: 9.34%
44 | CCCn1c(SCC(=O)Nc2c(CC)cccc2CC)nnc1C(C)C | inconclusive: -41.2%

Three entries out of the list, ordered by length of the SMILES, rising.
Row | Structure (SMILES) | activity change (PNC), negative = inhibition
21 | O=C(Nc1ccc(Cl)cc1)N1CCSCC1 | inconclusive: -33.4%
40 | COc1cc2ccccc2cc1C(=O)Nc1ccc(Cc2ccncc2)cc1 | inconclusive: -49.9%
9 | O=C(CS(=O)CC(=O)N(c1cccc(F)c1)C(C(=O)NC1CCCCC1)c1ccco1)Nc1ccc(F)cc1 (centres undefined) | inconclusive: -52.1%
